# ± gives the standard deviation of the averaged measurements. This is a selection; strong and weak results do not stand in their true shares.
# Sequences of proteins named here, by UniProt entry; tags and fusion partners are left off. A change or cut given only in a name is not applied to a line headed by its entry.
# UniProt O95159: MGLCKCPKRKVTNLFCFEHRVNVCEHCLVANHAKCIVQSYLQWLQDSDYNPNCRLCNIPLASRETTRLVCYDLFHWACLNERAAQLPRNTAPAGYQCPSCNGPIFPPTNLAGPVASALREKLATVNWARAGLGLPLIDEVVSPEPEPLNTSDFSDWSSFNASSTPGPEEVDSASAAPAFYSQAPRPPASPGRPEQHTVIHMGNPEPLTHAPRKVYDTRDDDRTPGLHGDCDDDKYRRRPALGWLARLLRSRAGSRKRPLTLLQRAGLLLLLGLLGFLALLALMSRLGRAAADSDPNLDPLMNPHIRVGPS
# UniProt O75844: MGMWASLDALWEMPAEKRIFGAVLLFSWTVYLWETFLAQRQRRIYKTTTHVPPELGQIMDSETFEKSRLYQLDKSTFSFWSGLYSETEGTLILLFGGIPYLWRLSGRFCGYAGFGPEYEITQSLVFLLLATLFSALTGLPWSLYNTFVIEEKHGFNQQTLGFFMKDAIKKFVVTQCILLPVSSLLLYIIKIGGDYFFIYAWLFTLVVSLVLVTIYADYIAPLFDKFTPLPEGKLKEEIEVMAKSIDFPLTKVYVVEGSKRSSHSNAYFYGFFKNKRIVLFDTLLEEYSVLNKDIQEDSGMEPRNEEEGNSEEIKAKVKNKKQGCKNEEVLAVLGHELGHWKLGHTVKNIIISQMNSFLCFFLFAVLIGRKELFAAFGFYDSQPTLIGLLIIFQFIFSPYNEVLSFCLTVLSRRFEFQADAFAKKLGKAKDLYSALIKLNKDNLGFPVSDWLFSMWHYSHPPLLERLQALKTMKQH
# UniProt O75928, whole entry: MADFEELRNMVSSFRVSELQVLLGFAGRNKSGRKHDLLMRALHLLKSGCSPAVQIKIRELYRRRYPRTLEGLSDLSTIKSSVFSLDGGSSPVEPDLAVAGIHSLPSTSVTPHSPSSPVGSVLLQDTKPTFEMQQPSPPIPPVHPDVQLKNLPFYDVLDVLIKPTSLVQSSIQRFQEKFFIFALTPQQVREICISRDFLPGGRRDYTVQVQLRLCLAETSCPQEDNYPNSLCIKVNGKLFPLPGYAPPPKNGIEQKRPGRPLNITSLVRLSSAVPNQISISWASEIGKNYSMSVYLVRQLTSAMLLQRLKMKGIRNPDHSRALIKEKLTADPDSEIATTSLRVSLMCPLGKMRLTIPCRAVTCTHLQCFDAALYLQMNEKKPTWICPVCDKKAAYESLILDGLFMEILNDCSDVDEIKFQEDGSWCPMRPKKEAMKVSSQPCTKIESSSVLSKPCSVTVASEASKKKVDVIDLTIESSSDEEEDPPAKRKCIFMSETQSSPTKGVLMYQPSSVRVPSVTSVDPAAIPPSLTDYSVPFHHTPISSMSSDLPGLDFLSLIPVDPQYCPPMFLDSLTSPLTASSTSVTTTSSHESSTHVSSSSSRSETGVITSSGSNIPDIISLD
# UniProt O75643, whole entry: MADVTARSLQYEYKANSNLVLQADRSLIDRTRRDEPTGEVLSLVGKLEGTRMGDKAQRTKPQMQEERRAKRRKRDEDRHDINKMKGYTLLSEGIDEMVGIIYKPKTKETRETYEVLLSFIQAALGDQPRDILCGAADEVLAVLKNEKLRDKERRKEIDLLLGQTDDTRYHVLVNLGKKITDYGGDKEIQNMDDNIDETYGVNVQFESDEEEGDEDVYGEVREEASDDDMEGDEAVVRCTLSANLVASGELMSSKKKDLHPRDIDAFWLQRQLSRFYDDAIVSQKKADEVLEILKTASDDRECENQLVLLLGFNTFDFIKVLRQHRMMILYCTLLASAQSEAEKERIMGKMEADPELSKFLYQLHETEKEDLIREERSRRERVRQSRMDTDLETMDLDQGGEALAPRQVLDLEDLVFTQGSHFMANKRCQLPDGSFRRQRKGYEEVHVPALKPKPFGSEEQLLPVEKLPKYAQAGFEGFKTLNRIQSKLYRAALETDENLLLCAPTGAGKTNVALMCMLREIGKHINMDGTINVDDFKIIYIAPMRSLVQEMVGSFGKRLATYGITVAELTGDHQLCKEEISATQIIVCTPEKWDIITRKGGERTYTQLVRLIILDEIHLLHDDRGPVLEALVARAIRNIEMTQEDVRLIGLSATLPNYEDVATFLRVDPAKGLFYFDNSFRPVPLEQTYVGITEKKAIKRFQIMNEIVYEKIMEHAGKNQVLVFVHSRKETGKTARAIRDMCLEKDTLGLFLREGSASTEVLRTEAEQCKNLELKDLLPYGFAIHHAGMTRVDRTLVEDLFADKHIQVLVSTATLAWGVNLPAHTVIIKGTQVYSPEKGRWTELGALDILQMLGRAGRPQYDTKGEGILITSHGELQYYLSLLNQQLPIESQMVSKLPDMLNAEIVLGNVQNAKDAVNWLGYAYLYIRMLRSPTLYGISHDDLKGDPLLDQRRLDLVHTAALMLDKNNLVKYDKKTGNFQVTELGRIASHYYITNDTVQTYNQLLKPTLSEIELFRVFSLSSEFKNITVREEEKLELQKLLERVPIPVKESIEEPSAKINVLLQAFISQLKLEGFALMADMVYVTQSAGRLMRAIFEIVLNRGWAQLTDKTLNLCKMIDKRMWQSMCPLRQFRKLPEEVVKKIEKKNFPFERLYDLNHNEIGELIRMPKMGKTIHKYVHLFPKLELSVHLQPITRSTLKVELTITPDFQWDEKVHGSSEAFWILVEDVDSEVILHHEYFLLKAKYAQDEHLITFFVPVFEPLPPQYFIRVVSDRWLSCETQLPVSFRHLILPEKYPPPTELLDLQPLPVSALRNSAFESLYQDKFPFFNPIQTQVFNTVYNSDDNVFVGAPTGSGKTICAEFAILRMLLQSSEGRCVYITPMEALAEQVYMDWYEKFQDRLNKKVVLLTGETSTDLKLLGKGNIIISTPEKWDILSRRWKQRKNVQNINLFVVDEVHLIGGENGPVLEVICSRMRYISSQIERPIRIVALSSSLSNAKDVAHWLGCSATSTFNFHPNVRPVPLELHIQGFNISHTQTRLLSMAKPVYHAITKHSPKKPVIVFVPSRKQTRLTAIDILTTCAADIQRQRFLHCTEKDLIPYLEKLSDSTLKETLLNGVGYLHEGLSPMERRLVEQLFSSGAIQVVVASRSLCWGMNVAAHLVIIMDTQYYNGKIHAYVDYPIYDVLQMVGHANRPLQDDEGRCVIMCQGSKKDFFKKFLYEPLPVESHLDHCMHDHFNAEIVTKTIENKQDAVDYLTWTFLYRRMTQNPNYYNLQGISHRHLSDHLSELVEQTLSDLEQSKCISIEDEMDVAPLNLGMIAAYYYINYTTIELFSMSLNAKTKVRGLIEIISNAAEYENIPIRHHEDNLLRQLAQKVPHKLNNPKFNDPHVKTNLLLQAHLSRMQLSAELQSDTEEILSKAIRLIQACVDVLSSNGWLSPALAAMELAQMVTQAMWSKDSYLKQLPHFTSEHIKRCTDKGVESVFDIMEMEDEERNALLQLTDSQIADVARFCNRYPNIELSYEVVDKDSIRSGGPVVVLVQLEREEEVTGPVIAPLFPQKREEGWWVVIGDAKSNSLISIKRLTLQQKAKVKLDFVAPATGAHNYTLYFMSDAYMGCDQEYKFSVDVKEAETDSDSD
# UniProt O60880: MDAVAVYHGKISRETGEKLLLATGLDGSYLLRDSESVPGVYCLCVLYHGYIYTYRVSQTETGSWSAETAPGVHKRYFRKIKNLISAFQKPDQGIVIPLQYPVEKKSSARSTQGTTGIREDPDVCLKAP
# UniProt O94832: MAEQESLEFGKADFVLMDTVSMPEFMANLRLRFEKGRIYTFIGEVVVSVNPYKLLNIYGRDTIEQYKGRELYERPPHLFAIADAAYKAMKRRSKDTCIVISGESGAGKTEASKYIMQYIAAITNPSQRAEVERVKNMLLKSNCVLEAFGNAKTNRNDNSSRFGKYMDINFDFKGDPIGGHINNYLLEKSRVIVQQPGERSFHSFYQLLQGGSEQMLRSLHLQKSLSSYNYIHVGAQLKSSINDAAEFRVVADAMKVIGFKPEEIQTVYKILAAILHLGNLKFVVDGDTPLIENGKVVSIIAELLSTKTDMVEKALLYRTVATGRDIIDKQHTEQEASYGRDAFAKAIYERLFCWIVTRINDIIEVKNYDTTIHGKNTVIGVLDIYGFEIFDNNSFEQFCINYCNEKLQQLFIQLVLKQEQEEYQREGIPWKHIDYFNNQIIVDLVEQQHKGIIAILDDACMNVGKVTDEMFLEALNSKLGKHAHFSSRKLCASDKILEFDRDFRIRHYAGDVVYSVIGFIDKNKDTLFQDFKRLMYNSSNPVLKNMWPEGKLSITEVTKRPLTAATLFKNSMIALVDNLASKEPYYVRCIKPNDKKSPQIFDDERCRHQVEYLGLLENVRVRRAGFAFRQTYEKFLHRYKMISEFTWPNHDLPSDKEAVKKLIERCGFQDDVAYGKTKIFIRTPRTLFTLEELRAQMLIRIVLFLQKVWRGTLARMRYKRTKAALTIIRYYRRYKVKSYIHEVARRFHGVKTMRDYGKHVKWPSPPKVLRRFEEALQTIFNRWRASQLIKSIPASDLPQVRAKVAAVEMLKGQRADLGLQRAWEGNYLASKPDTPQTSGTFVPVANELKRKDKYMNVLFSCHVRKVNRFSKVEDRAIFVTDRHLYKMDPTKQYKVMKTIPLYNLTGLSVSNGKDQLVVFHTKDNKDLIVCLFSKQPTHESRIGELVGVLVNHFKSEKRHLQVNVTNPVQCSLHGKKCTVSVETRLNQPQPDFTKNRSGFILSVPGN
# UniProt O75113: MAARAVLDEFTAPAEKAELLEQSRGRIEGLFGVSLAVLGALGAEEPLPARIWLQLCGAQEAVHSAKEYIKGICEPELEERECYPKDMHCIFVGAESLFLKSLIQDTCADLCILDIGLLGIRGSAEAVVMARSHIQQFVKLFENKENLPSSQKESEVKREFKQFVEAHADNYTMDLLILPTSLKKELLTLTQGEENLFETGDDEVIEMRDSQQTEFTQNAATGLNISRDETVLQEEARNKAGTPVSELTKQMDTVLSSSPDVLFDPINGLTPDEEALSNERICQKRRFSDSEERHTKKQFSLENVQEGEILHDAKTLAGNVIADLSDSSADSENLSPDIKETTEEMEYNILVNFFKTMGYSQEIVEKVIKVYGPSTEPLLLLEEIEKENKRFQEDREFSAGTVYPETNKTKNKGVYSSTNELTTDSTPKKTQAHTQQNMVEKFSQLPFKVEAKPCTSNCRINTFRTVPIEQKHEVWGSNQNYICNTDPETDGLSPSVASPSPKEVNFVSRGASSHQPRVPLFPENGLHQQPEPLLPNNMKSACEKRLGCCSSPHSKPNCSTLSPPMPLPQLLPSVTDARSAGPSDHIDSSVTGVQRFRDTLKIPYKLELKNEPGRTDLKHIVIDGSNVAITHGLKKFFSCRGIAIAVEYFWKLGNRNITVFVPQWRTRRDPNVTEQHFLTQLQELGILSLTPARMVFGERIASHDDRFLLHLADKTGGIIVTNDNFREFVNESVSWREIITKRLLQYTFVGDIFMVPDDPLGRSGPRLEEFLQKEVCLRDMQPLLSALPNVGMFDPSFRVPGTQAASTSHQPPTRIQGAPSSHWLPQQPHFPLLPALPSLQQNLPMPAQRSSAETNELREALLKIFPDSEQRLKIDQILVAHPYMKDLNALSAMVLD
# UniProt O60763: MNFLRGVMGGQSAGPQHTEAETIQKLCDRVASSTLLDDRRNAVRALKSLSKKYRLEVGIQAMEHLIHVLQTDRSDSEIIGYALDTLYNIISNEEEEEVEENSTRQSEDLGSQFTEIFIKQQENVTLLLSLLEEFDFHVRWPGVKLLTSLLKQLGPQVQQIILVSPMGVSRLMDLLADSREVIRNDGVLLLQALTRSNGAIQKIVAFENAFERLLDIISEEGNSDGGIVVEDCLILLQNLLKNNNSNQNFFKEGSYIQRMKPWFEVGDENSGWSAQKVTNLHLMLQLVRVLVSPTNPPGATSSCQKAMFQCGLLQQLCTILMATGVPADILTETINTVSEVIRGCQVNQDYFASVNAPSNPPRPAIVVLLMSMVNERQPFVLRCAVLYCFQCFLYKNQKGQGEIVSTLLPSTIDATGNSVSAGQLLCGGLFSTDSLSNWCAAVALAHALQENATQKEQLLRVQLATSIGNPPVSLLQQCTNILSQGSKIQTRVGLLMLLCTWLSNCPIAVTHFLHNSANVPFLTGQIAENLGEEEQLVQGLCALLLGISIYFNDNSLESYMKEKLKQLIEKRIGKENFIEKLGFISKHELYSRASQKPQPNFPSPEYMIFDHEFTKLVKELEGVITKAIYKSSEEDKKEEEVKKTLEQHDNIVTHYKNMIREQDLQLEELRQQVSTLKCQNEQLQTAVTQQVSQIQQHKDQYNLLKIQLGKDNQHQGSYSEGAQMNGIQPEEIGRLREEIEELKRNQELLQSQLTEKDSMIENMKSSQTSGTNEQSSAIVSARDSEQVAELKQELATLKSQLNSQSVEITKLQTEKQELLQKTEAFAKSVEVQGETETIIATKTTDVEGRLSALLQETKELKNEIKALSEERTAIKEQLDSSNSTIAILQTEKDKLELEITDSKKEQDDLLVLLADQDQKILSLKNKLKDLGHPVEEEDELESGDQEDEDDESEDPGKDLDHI
# Compound: Nc1ncnc2c1ncn2[C@@H]1O[C@H](COP(=O)(O)OP(=O)(O)OP(=O)(O)O)[C@@H](O)[C@H]1O [adenosine triphosphate]
# Assay: NP40-soluble protein abundance relative to vehicle (solubility fold change) (ratio); higher = more soluble protein in presence of ATP
# Procedure, shortened: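 Crude Jurkat lysate, prepared by Dounce homogenisation, was exposed to eight concentrations from 0.1 to 10 mM for 10 min at room temperature and then 3 min at 37 °C. Solubilisation used 0.8% NP40 with benzonase for 60 min at 4 °C, followed by ultracentrifugation and TMT labelling of the supernatant for LC-MS/MS. After vsn normalisation of intensities, each value is the fold change against the detergent-processed vehicle within each replicate, across three independent experiments.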
Target,NP40-soluble protein abundance (concentration: 1mM),NP40-soluble protein abundance (concentration: 2mM),NP40-soluble protein abundance (concentration: 4mM),NP40-soluble protein abundance (concentration: 6mM),NP40-soluble protein abundance (concentration: 8mM),NP40-soluble protein abundance (concentration: 10mM)
KPNA6 (UniProt O60684),1.02 ± 0.026,1.02 ± 0.029,1.034 ± 0.0041,1 ± 0.053,1.03 ± 0.014,1.03 ± 0.029
ZFPL1 (UniProt O95159),0.993 ± 0.058,1.05 ± 0.044,1.02 ± 0.014,0.994 ± 0.064,1 ± 0.049,1.01 ± 0.039
UniProt O60879-2|O60879-3|C9J6U3 and related entries,1.01 ± 0.012,1.01 ± 0.023,1.006 ± 0.0081,1.013 ± 0.0068,1 ± 0.012,0.9974 ± 0.0084
ATP6V1G1 (UniProt O75348),0.889 ± 0.08,0.889 ± 0.094,0.886 ± 0.08,0.983 ± 0.15,0.861 ± 0.04,0.787 ± 0.13
CCNK (UniProt O75909),1.14 ± 0.077,1.19 ± 0.018,1.18 ± 0.068,1.14 ± 0.14,1.15 ± 0.04,1.16 ± 0.024
UniProt O94842 and related entries,0.976 ± 0.043,0.986 ± 0.056,1 ± 0.027,1.11 ± 0.043,1.001 ± 0.0049,1 ± 0.071
UniProt O75190 and related entries,1.11 ± 0.064,1.1 ± 0.047,1.09 ± 0.057,1.08 ± 0.062,1.18 ± 0.1,1.13 ± 0.061
ZMPSTE24 (UniProt O75844),1.03 ± 0.1,1.01 ± 0.087,0.974 ± 0.082,0.922 ± 0.15,0.998 ± 0.048,0.987 ± 0.05
WDR1 (UniProt O75083),0.999 ± 0.051,0.947 ± 0.067,0.925 ± 0.05,0.923 ± 0.088,0.942 ± 0.052,0.912 ± 0.046
UniProt O75928 and related entries,1.02 ± 0.12,1 ± 0.1,1 ± 0.1,1 ± 0.072,1.01 ± 0.1,1.03 ± 0.083
UniProt O75525 and related entries,1.1 ± 0.044,1.092 ± 0.009,1.16 ± 0.014,1.18 ± 0.043,1.21 ± 0.023,1.24 ± 0.044
SNRNP200 (UniProt O75643),1.17 ± 0.11,1.16 ± 0.041,1.24 ± 0.027,1.25 ± 0.034,1.5 ± 0.028,1.46 ± 0.069
GRAP2 (UniProt O75791),0.968 ± 0.06,0.968 ± 0.05,0.954 ± 0.05,0.921 ± 0.089,0.972 ± 0.048,0.94 ± 0.047
UniProt O60880 and related entries,0.933 ± 0.074,0.926 ± 0.083,0.903 ± 0.032,0.937 ± 0.08,0.887 ± 0.025,0.952 ± 0.025
SF3B1 (UniProt O75533),1.14 ± 0.024,1.11 ± 0.013,1.13 ± 0.012,1.17 ± 0.049,1.2 ± 0.031,1.19 ± 0.043
ATG7 (UniProt O95352),0.969 ± 0.026,0.974 ± 0.039,0.965 ± 0.035,0.928 ± 0.036,0.972 ± 0.037,0.981 ± 0.032
YEATS4 (UniProt O95619),0.9808 ± 0.0096,0.968 ± 0.011,0.946 ± 0.061,1.05 ± 0.11,1.01 ± 0.048,1 ± 0.038
UniProt O95568 and related entries,0.953 ± 0.046,1.01 ± 0.084,0.972 ± 0.014,1 ± 0.046,0.989 ± 0.15,1.05 ± 0.1
UniProt O60443 and related entries,0.955 ± 0.062,0.955 ± 0.086,0.963 ± 0.096,0.951 ± 0.13,0.961 ± 0.088,1.03 ± 0.03
MYO1D (UniProt O94832),1.27 ± 0.2,1.28 ± 0.14,1.21 ± 0.26,1.32 ± 0.2,1.18 ± 0.18,1.26 ± 0.081
UniProt O75486 and related entries,1.07 ± 0.15,1.06 ± 0.02,1.05 ± 0.15,1.25 ± 0.25,1.23 ± 0.13,1.18 ± 0.1
UniProt O60504 and related entries,0.976 ± 0.021,0.982 ± 0.015,0.98 ± 0.011,0.975 ± 0.02,0.98 ± 0.011,0.967 ± 0.02
N4BP1 (UniProt O75113),0.96 ± 0.018,0.942 ± 0.019,0.942 ± 0.026,0.96 ± 0.022,0.9157 ± 0.008,0.918 ± 0.016
CCNT1 (UniProt O60563),1.1 ± 0.016,1.15 ± 0.018,1.3 ± 0.018,1.49 ± 0.039,1.54 ± 0.04,1.69 ± 0.073
UGDH (UniProt O60701),1.01 ± 0.028,0.999 ± 0.032,1 ± 0.019,0.983 ± 0.062,0.977 ± 0.048,0.984 ± 0.042
UniProt O60763 and related entries,0.921 ± 0.035,0.94 ± 0.018,0.8989 ± 0.0055,0.937 ± 0.019,0.9 ± 0.018,0.907 ± 0.014
VPS4B (UniProt O75351),1 ± 0.04,1.01 ± 0.011,0.997 ± 0.021,1.01 ± 0.031,0.975 ± 0.048,0.991 ± 0.033
SLC16A7 (UniProt O60669),0.937 ± 0.084,0.92 ± 0.11,0.995 ± 0.055,0.995 ± 0.088,0.953 ± 0.05,0.977 ± 0.084
UniProt O95758-2|O95758-6|O95758 and related entries,1 ± 0.03,1.01 ± 0.037,1.06 ± 0.061,0.998 ± 0.046,1.01 ± 0.023,0.998 ± 0.025
POP4 (UniProt O95707),1.01 ± 0.087,0.998 ± 0.028,1.038 ± 0.0046,0.919 ± 0.13,1.1 ± 0.077,1.08 ± 0.064

# A portion from the list above, as a working copy:
Target,NP40-soluble protein abundance (concentration: 1mM),NP40-soluble protein abundance (concentration: 2mM),NP40-soluble protein abundance (concentration: 4mM),NP40-soluble protein abundance (concentration: 6mM),NP40-soluble protein abundance (concentration: 8mM),NP40-soluble protein abundance (concentration: 10mM)
UniProt O75525 and related entries,1.1 ± 0.044,1.092 ± 0.009,1.16 ± 0.014,1.18 ± 0.043,1.21 ± 0.023,1.24 ± 0.044
SNRNP200 (UniProt O75643),1.17 ± 0.11,1.16 ± 0.041,1.24 ± 0.027,1.25 ± 0.034,1.5 ± 0.028,1.46 ± 0.069
